Measured values published in PubChem BioAssay AID493014 (National Center for Advancing Translational Sciences (NCATS), 2011).
This is one part of the list. These are further read-outs of the screen, such as a control signal, another cell line or another target. No call is given for them. Most of these compounds were active or inconclusive in the main read-out, so they are no random draw. Potencies come from curve fits of mixed quality, noted in brackets.

Test: qHTS Assay to Find Inhibitors of Chronic Active B-Cell Receptor Signaling
Details: ABC-DLBCL IkBa-CBG/CBR reporter, luminescence ratio (green luciferase fused to IkBa over red control in TMD8 lymphoma cells), 4 h
Procedure, shortened: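 TMD8 ABC-DLBCL cells carrying doxycycline-inducible green luciferase fused to IkappaBalpha plus unfused red luciferase were exposed to compounds (up to 46 uM) for 4 hrs at 37C. Activity came from the overlap-corrected green/red luminescence ratio.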

[1] = measured here: CBR red luminescence, cell number
[2] = measured here: IkBa-CBG green luminescence

Structure (SMILES)	AC50 [1]	AC50 [2]
CCn1cc(C(=O)Nc2ccc(F)c(F)c2)cn1	4.61 µM [rising, full curve, poor fit]	–
COc1cccc(/C=C/C(=O)c2c(O)cc(C)oc2=O)c1O	32.6 µM [falling, single point]	–
CC(OC(=O)Cc1c[nH]c2ccccc12)C(=O)Nc1ccccc1F (stereo not drawn)	1.64 µM [falling, full curve]	–
CC(C1CC1)N(Cc1ccccc1)C(=S)Nc1cccc(C(F)(F)F)c1 (stereo not drawn)	29.1 µM [falling, single point]	–
Cc1c(NC(=O)C2CCCO2)cccc1[N+](=O)[O-] (stereo not drawn)	0.731 µM [rising, full curve]	–
O=C(N/N=C/c1ccncc1)C1CC1(c1ccccc1)c1ccccc1 (stereo not drawn)	35.5 µM [falling, single point]	–
CS(=O)(=O)N1CCCC(C(=O)NCCc2ccc(Cl)cc2)C1 (stereo not drawn)	35.5 µM [falling, single point]	–
S=c1[nH]ncn1/N=C/c1ccc(Br)cc1	–	35.5 µM [falling, single point]
O=C(NNC(=O)c1cnccn1)c1ccc(Cl)c(Cl)c1	8.91 µM [falling, partial curve]	–
CCCN(CC(=O)Nc1cccc(Br)c1)CC(=O)Nc1ccc(F)c(F)c1F	23.1 µM [falling, partial curve, poor fit]	18.4 µM [rising, partial curve, poor fit]
O=c1cc(CN2CCN(c3ccccc3F)CC2)c2cc3c(cc2o1)CCCC3	25.9 µM [rising, single point]	–
COc1ccc(CCNC(=O)CN2CCN(S(=O)(=O)c3ccc(Cl)cc3)CC2)cc1OC	7.31 µM [falling, partial curve, poor fit]	–
COc1ccc(OC)c(-c2nnc3n2N=C(c2ccc(OC)c(OC4CCOC4)c2)CS3)c1 (stereo not drawn)	1.64 µM [rising, partial curve, poor fit]	1.64 µM [falling, full curve]
CCOC(=O)c1ccc(NC(=O)COc2ccc(CNCCO)cc2OCC)cc1	35.5 µM [falling, single point]	–
CCOC(=O)c1ccc(-c2ccc(C=O)o2)cc1	14.1 µM [falling, single point]	–
O=C(N/N=C/c1ccc([N+](=O)[O-])cc1)c1cc2ccccc2o1	7.94 µM [rising, partial curve, poor fit]	–
COc1ccc(-c2cccc(C(=O)N3CCOCC3)c2)cc1	0.501 µM [rising, full curve, poor fit]	–
CS(=O)(=O)N1CCN(c2ccccc2NC(=O)C(c2ccccc2)c2ccccc2)CC1	3.66 µM [falling, partial curve]	–
Cc1ccc2nc(NC(=O)CSc3[nH]c(=O)ncc3C)sc2c1	20 µM [falling, partial curve, poor fit]	–
Brc1ccc(-c2nc(-c3ccccn3)no2)o1	14.6 µM [falling, partial curve, poor fit]	–

Structure (SMILES)	AC50 [1]	AC50 [2]
COc1ccc2cc(C(=O)C3CCCN(C(=O)c4cnccn4)C3)ccc2c1 (stereo not drawn)	20 µM [falling, single point]	–
O=C1Nc2ccccc2Oc2cc([N+](=O)[O-])cc(Oc3ccccc3)c21	20.6 µM [falling, single point]	–
CCCn1c(N)c(C(=O)CSc2nc3ccccc3c(=O)n2Cc2ccccc2)c(=O)[nH]c1=O	12.6 µM [rising, partial curve]	–
Cc1cc(C(=O)N/N=C/c2ccc([N+](=O)[O-])cc2)c2ccccc2n1	35.5 µM [rising, single point]	–
CS(=O)(=O)N1CCN(C(=O)Nc2ccccc2)CC1	1 µM [rising, full curve, poor fit]	–
Cc1ccc(-n2c(SCc3ccccc3F)nc3[nH]ncc3c2=O)cc1Cl	25.1 µM [falling, single point]	–
COCc1[nH]nc2c1C(c1ccccc1OC)C(C#N)=C(N)O2 (stereo not drawn)	1.3 µM [falling, full curve]	–
Cc1nn(C)cc1CNC(=O)COc1ccc(Cl)cc1Cl	6.51 µM [rising, full curve, poor fit]	23.1 µM [falling, partial curve, poor fit]
COc1ccc(C(F)(F)F)cc1N/C=C/c1nnnn1-c1ccc(C)cc1	14.1 µM [rising, partial curve]	–
CCN1C(=O)C(CC(=O)Nc2ccc(F)cc2)N(Cc2ccc3c(c2)OCO3)C1=S (stereo not drawn)	8.91 µM [falling, partial curve, poor fit]	–
COc1ccccc1CNC(=O)c1ccccc1OC	0.00461 µM [falling, full curve, poor fit]	–
Cc1ccc(NC(=O)c2cc(S(=O)(=O)N3CCC4(CC3)OCCO4)ccc2F)cc1Cl	6.31 µM [falling, full curve, poor fit]	–
CCOc1cccc(C(=O)Nc2ccc(-c3nc4ncccc4o3)cc2C)c1	2.51 µM [rising, partial curve, poor fit]	–
O=C(CCNc1ccc(F)cc1)c1cc2ccccc2o1	5.62 µM [falling, partial curve]	–
O=[N+]([O-])c1ccc(CSc2ncnc3c2ncn3[C@@H]2O[C@H](CO)[C@@H](O)[C@H]2O)cc1	18.4 µM [rising, single point]	–
O=C(Nc1ccc(C(=O)O)cc1)/C(=C\c1ccc([N+](=O)[O-])cc1)NC(=O)c1ccc(Br)cc1	35.5 µM [falling, single point]	–
NC(=O)CSc1nnc(NC(=O)c2ccc3ccccc3c2)s1	1.84 µM [falling, full curve]	–
COc1ccccc1/C=C/C(=O)c1c2c(c(C)[nH]c1=O)CCCC2	0.631 µM [falling, full curve, poor fit]	–
CN(C)c1cccc(C(=O)OCC(=O)Nc2ccccc2Sc2ccccc2)c1	20.6 µM [falling, single point]	–
CC(=O)c1cc(C(c2csc(C(C)=O)c2)c2csc(C(C)=O)c2)cs1	20.6 µM [rising, single point]	–

Three entries from above, ordered by number of heavy atoms, rising:
Structure (SMILES)	AC50 [1]	AC50 [2]
COc1ccccc1CNC(=O)c1ccccc1OC	0.00461 µM [falling, full curve, poor fit]	–
Cc1nn(C)cc1CNC(=O)COc1ccc(Cl)cc1Cl	6.51 µM [rising, full curve, poor fit]	23.1 µM [falling, partial curve, poor fit]
O=C(Nc1ccc(C(=O)O)cc1)/C(=C\c1ccc([N+](=O)[O-])cc1)NC(=O)c1ccc(Br)cc1	35.5 µM [falling, single point]	–
